Details: single subject, forehead sensor, patient remains unconscious; FIG. 6C

CCN(CC)CC(=O)Nc1c(C)cccc1C [lidocaine]
EDA SCR after lidocaine infusion is stopped, highest levels: approximately 35 micro-Siemens

— US20250213183A1, “SYSTEM AND METHOD OF MONITORING NOCICEPTION AND ANALGESIA DURING ADMINISTRATION OF GENERAL ANESTHESIA” (The General Hospital Corporation, priority 2022, published 2025)
